No constants are given. Whether binding was seen depends on the method and setting. In cells and extracts the contact can be indirect. Some entries that bind do so weakly or less than the wild type.
T1: SHMT1, overexpressed (UniProt P50431)
T1 sequence: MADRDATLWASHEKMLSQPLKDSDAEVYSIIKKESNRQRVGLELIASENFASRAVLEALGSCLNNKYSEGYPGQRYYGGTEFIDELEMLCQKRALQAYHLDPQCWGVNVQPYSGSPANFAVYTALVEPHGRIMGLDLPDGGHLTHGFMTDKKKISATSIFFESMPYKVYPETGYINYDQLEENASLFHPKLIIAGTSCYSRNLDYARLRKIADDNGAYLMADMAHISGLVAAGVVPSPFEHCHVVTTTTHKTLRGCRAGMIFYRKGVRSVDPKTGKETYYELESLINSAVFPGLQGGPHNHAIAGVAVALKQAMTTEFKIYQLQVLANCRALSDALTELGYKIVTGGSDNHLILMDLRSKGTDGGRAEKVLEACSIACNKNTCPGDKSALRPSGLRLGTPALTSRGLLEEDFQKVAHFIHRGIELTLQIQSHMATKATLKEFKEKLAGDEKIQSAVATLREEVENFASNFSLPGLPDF

T2: Serine Hydroxymethyltransferase 1 (SHMT1) (UniProt P50431)
T2 sequence: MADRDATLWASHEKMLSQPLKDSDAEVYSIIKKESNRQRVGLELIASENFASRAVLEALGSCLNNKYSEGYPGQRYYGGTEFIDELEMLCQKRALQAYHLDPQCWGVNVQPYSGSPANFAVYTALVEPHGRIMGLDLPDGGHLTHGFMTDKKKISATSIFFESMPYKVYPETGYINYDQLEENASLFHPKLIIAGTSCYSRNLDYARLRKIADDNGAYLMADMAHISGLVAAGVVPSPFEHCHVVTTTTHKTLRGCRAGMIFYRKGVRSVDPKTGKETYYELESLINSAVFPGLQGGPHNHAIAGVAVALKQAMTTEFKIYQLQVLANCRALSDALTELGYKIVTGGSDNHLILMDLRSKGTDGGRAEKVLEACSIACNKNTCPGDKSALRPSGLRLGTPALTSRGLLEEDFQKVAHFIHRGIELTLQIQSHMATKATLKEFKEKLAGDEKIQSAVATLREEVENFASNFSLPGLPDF

T3: Serine Hydroxymethyltransferase 1 (SHMT1), endogenous mouse (mouse (endogenous in primary astrocytes and midbrain tissue)) (UniProt P50431)
T3 sequence: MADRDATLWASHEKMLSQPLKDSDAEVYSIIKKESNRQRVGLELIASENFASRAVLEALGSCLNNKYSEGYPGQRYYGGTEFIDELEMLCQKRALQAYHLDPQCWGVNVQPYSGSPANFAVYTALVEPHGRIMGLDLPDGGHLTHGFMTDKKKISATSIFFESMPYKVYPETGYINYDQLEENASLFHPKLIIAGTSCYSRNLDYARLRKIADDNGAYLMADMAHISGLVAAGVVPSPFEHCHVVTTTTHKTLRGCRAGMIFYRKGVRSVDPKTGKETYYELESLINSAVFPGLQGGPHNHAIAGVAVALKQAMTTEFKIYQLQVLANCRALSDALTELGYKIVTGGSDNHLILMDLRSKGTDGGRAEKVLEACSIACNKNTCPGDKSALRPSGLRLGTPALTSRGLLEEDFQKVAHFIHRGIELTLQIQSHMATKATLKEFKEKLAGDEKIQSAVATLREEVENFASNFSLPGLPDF


Tests used:
SHMT1, overexpressed = molecular target: T1, SHMT1, overexpressed; experiment: co-IP; cell lysates (cells not named) in NP-40 lysis buffer with protease inhibitors; 1 mg total protein with anti-PEMT or anti-SHMT1 antibody overnight at 4 °C, Protein A/G agarose beads, immunoblotting; also cells overexpressing SHMT1 in the MPP+ model (PEMT in the washing solution) and cells pretreated with Isoorientin (10 µM) and MPP+ (500 µM)
[1] = molecular target: T2, Serine Hydroxymethyltransferase 1 (SHMT1); experiment: as above
[2] = molecular target: T3, Serine Hydroxymethyltransferase 1 (SHMT1), endogenous mouse (mouse (endogenous in primary astrocytes and midbrain tissue)); experiment: co-IP; midbrain tissue proteins of mice of the Isoorientin and MPTP/p groups, immunoprecipitated with anti-SHMT1 antibody, immunoblotting
[3] = molecular target: T3, Serine Hydroxymethyltransferase 1 (SHMT1), endogenous mouse (mouse (endogenous in primary astrocytes and midbrain tissue)); experiment: proximity ligation; Duolink PLA in primary astrocytes pretreated with MPP+ (500 µM) or Isoorientin (10 µM); rabbit anti-SHMT1 and mouse anti-PEMT primary antibodies

binding (SHMT1, overexpressed) | binding [1] | binding [2] | binding [3] | Binder
binds | binds | – | – | phosphatidylethanolamine N-methyltransferase (PEMT) (protein, UniProt Q61907 1-199) MSWLLGYMDPTEPSFVAAVITIVFNPLFWNVVARWEQRTRKLSRAFGSPHLACYSLGICILLLNILRSHCFTQAMMSQPKMEGLDNHTTYFLGLAFLGWGFVFVLSSFYALGFTGTFLGDYFGILKESRVTTFPFSVLDNPMYWGSTANYLGWALMHASPTGLLLTVLVAIVYVVALLYEEPFTAEIYRQKATRLHKRS
– | – | binds | binds | phosphatidylethanolamine N-methyltransferase (PEMT), endogenous mouse (protein, UniProt Q61907 1-199) MSWLLGYMDPTEPSFVAAVITIVFNPLFWNVVARWEQRTRKLSRAFGSPHLACYSLGICILLLNILRSHCFTQAMMSQPKMEGLDNHTTYFLGLAFLGWGFVFVLSSFYALGFTGTFLGDYFGILKESRVTTFPFSVLDNPMYWGSTANYLGWALMHASPTGLLLTVLVAIVYVVALLYEEPFTAEIYRQKATRLHKRS
